Sequences of proteins named here, by UniProt entry; tags and fusion partners are left off.
UniProt Q13191, whole entry: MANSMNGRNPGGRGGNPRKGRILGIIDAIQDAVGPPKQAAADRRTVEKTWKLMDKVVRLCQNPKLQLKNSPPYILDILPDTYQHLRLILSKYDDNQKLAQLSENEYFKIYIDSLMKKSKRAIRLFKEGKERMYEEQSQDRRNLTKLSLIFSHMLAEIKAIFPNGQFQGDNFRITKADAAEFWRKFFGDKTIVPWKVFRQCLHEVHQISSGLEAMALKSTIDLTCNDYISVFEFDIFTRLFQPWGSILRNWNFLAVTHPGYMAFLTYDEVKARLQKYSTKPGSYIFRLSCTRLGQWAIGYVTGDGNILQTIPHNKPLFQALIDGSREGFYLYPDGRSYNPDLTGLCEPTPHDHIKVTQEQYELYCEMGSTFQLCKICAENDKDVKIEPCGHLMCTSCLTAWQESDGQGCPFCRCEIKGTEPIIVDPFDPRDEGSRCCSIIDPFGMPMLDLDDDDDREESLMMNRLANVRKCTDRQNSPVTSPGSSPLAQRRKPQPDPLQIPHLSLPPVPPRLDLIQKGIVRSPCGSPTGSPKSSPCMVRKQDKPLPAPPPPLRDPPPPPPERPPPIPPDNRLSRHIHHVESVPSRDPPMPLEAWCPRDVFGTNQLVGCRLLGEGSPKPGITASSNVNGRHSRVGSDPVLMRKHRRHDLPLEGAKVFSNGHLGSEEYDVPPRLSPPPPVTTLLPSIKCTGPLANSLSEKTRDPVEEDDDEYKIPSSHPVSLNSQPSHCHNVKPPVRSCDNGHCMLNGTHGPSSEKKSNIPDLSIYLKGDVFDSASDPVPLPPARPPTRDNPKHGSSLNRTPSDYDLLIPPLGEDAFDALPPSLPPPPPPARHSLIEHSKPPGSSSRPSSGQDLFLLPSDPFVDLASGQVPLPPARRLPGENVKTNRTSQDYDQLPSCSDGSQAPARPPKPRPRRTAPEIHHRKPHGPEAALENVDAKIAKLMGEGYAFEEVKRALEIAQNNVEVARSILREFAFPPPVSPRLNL

In patent publication US20260116868A1 (Arcus Biosciences, Inc., priority 2023, published 2026):

Columns and labels:
Cbl-b = Cbl-b (Homo sapiens, UniProt Q13191); test: Cbl-b probe displacement HTRF binding assay; conditions: read-out: Cbl-b Binding (IC50), 0.4 nM Cbl-b, 150 nM BODIPY probe
Protocol: The affinity with which compounds of the present disclosure bind to Cbl-b was assessed using probe displacement homologous time resolved fluorescence (HTRF) assays. The assays used a BODIPY™ conjugated probe (Example 54 from WO 2020264398) and biotinylated Cbl-b. The assays were performed in assay buffer consisting of 20 mM Hepes, 150 mM NaCl, 0.01% Triton X-100, 0.5 mM TCEP, 0.01% BSA. On the day of the assay, a 20 point, 1:2 master serial dilution of each compound was prepared in DMSO to span a final concentration range of […] to 0 nM. Two hundred nanoliters of diluted compound was added to each well of a 384-well plate. Fifteen microliters of biotinylated- Cbl-b resuspended in assay buffer were added to each well and the plate incubated for 60 minutes at room temperature prior to addition of 5 μL of BODIPY™ probe in assay buffer. Final assay conditions included 0.4 nM of Cbl-b and 150 nM of BODIPY™ probe. […] HTRF signal was measured by Envision plate reader, while competition of a compound of the present disclosure with probe results in a decrease of signal. Percentage maximum activity in each test well was calculated based on DMSO (maximum activity, 0% displacement) and no protein control wells (baseline activity, 100% displacement). Binding affinity was determined from a dose response curve fitted using a standard four parameter fit equation. […]

Jurkat cells = test: IL-2 secretion assay in Jurkat cells activated with CD3/CD28 T Cell Activator; type: cell-based, human; conditions: read-out: IL-2 Secretion (EC50), 24 h, IL-2 AlphaLISA
Protocol: Certain compounds were also evaluated in an IL-2 secretion assay. On the day of the assay, a 16 point, 1:2 master serial dilution of each compound was prepared in Opti-MEM to span a final concentration range of 10 μM to 300 pM. Assays were set up in CORNING® tissue culture-treated 384-well microplates containing 60 nL of each dilution. Jurkat cells grown in RPMI-1640 supplemented with 10% FBS, 1% Glutamax, and 1% Pen/Strep were collected, resuspended in Opti-MEM. 50,000 cells/well and added to the compound plates. After a short spin (1200 rpm for 1 min), the plates were incubated at 37° C. for 1 hour. The cells were activated by adding 15 μL of IMMUNOCULT™ Human CD3/CD28 T Cell Activator (STEMCELL Technologies) diluted in Opti-MEM. After 24 h of incubation at 37° C., aliquots of culture supernatants were transferred to OptiPlate-384 (PerkinElmer) microplates. The level of IL-2 secretion in the supernatants was then determined using the IL-2 (human) AlphaLISA Detection Kit (PerkinElmer) according to the manufacturer's recommendations. The AlphaLISA signal was measured using an EnVision plate reader (PerkinElmer). EC50 values were determined by fitting the data to a standard 4-parameter logistic equation. See Table 7 for data for select compounds (IL-2 Secretion (EC50)).

| EC50 (Jurkat cells) [µM] | SMILES | IC50 (Cbl-b) [µM] |
| --- | --- | --- |
|  | C[C@H](NCc1cc(C(=O)Nc2cc(-c3c(F)cc(C#N)cc3C(=O)N3CC(F)(F)C3)cc(C3CC3)n2)c(=O)n(C)c1)C1CCC1 | < 0.1 |
| 0.1 to 1 | N#Cc1ccc(-c2cc(NC(=O)c3cc(CN[C@@H]4CCOC4)cn(C4CC4)c3=O)nc(C3CC3)c2)c(-c2nncn2C(F)F)c1 | < 0.1 |

The match of structure and compound is tentative.
